According to article PMC5055354:

Biological target: T1, STING-HA (HA-tagged Stimulator of interferon genes) (UniProt Q3TBT3)
T1 sequence: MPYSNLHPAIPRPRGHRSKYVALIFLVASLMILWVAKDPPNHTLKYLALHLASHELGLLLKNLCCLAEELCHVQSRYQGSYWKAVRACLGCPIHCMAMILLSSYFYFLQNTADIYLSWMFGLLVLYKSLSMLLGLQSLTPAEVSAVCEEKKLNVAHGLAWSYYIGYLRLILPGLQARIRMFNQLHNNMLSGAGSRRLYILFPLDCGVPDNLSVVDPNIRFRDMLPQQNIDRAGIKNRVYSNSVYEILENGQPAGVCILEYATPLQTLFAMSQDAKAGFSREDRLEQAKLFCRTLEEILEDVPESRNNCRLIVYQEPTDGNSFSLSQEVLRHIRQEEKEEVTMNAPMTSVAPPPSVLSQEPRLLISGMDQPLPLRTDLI
Test: co-IP; 293T cells transfected with V5-tagged TRAF2, TRAF3 or TRAF6 and CD40-DDK/Myc, STING-HA or both; whole-cell extract precipitated with anti-Myc or anti-HA magnetic beads; blotted with anti-V5 (TRAFs), anti-HA (STING) or anti-Myc (CD40)

## V5-tagged TRAF6 (TNF receptor associated factor 6)
  binding: binds

## V5-tagged TRAF3 (TNF receptor associated factor 3)
  binding: binds

These are yes or no findings as the source states them, for the method shown. Binding seen in cells or lysates may run through a third protein. A result given as binding can be weak or reduced; the word gives no strength. Sequences can lack the tags named with a protein.
